Results published in US20170306005A1 (NASCIENT, published 2017).
Results are given in words; binding and its absence hold for the method and conditions named. Some entries that bind do so weakly or less than the wild type. For some of these results: Sequences can lack the tags named with a protein.

Assays:
[1] = target: tenascin-C (Nascient), full length (UniProt P24821); assay: western blot, reducing SDS-PAGE
[2] = target: T1, human tenascin-C rCd4-His-FBG (rat; human, UniProt P05540 207-392, limits assumed); assay: western blot, reducing SDS-PAGE
T1 construct: domain: domains 3 and 4; C-terminal FBG fusion; biotinylated in the ELISA and HTRF screens; also called Hu TNC; human TNC rCd4-His-FBG; not shown: 6His tag
T1 sequence (chain (part 1 of 2)): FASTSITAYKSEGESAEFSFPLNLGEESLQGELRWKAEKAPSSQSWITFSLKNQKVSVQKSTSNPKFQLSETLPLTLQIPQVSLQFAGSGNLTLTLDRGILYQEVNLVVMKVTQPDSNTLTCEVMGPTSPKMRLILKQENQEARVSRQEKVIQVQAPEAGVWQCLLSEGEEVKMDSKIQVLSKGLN
T1 sequence (chain (part 2 of 2)): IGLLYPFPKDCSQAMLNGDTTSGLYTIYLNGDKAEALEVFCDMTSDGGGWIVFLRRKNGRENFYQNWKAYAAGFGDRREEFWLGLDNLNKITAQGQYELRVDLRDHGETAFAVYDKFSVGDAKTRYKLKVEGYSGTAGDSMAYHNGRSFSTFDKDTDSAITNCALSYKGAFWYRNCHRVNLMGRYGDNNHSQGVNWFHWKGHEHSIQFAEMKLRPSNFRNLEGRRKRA

[3] = target: T1, human tenascin-C rCd4-His-FBG; assay: western blot
[4] = target: T2, human His-FBG citrullinated with PAD4 (human, UniProt P24821 1974-2201, arginines citrullinated by peptidylarginine deiminase 4; positions not stated); assay: SPR, captured IgG4, 25 C
T2 construct: also called His-FBG + PAD4; citrullinated His-FBG; not shown: His tag
T2 sequence: T1 sequence (chain (part 2 of 2))

[5] = target: T3, human His-FBG citrullinated with PAD2 (human, UniProt P24821 1974-2201, arginines citrullinated by peptidylarginine deiminase 2; positions not stated); assay: SPR, captured IgG4, 25 C
T3 construct: also called His-FBG + PAD2; citrullinated His-FBG; not shown: His tag
T3 sequence: T1 sequence (chain (part 2 of 2))

[6] = target: T1, human tenascin-C rCd4-His-FBG; assay: western blot, 10% SDS-PAGE under reducing conditions, nitrocellulose; B12 IgG4 MAb 1:20,000 (0.25 ug/ml) overnight at 4 C; 5 min exposure
[7] = target: endogenous tenascin-C in human RA knee synovium (human) (UniProt P24821); assay: immunohistochemistry, RA synovium sections

Measured: binding

B1: B12 human IgG4 (antibody, V domains shown)
VH: QVQLVESGGGLVQPGRSLRLSCAASGFTFDDYAMHWVRQAPGKGLEWVSGISGSGGSTYYADSVKGRFTISRDNAKNSLYLQMNSLRAEDTALYYCAKDISAVPDTFDIWGQGTMVTVSS
VL: DIQMTQSPASLPTPVGDRVTITCRASQYIQGFLNWYQQKPGKAPKLLIYDASNLETGVPSRFSGSGSGTDFTLTISSLQPEDFATYYCQQSYSTPQTFGQGTKVDIKR
notes: human IgG4 with hinge S241P; also called B12 parent; B12-hIgG4
binds: [1] | [2] | [3] | [4] | [5] | [6]

B2: B12 formatted as mouse IgG2a (antibody, V domains shown)
VH: B1 VH
VL: B1 VL
binds: [7]
